Measurements reported in PubChem BioAssay AID743454 (Peter MacCallum Cancer Centre, 2014).

- Screen: 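Search for knock-downs that restore vorinostat killing in resistant colon cancer cells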 (primary screen)
- Cell system: human HCT116-VR colon cancer cells, selected for vorinostat resistance
- Reagent: siRNA pool against human genes, 40 nM siRNA pool
- Timing: vorinostat for 24 h, read-out about 72 h after transfection
- Treatment: vorinostat at 2.5 µM final
- Read-out: 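Cell viability by CellTiter-Fluor and caspase 3/7 activity by luminescence, each scaled to mock wells per plate, duplicates averaged, then robust z-scored over all plates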
- Reading the numbers: viability robust z-score: higher = more viable cells than screen typical; caspase robust z-score: higher = more caspase 3/7 activity than screen typical
- Active means: 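a knock-down is a hit when classed RV1 or RV2 for lowered viability, or CA1 or CA2 for caspase activation; those lethal without drug were dropped; hits were retested singly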
Here is an unselected part of about 18,000 reagents. 450 of all reagents (2.5%) were called active. 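Single biological run; no consistent viability z cut-off exists, so the class columns, not z-scores, define the calls.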 A number with no mark means an inactive call.

The opening 2 records, to show the layout:
TMEM74B → viability hit class: no change; caspase hit class: no change; viability robust z-score: 1.52; caspase robust z-score: -0.3
KCNK3 → viability hit class: no change; caspase hit class: no change; viability robust z-score: 0.3; caspase robust z-score: 0.2

Main list, from the first entry:
TMEM74B → viability hit class: no change; caspase hit class: no change; viability robust z-score: 1.52; caspase robust z-score: -0.3
KCNK3 → viability hit class: no change; caspase hit class: no change; viability robust z-score: 0.3; caspase robust z-score: 0.2
BTNL3 → viability hit class: no change; caspase hit class: no change; viability robust z-score: -0.63; caspase robust z-score: -0.13
ISY1 → viability hit class: no change; caspase hit class: no change; viability robust z-score: -3.87; caspase robust z-score: 0.78
CST6 → viability hit class: no change; caspase hit class: no change; viability robust z-score: 0.84; caspase robust z-score: -0.36
ARL4D → viability hit class: no change; caspase hit class: no change; viability robust z-score: -0.54; caspase robust z-score: 2.54
AK5 → viability hit class: no change; caspase hit class: no change; viability robust z-score: 1.44; caspase robust z-score: 0.48
CYRIB → viability hit class: no change; caspase hit class: no change; viability robust z-score: 0.44; caspase robust z-score: 0.46
DNPEP → viability hit class: no change; caspase hit class: no change; viability robust z-score: -0.57; caspase robust z-score: 0.33
DHX37 → viability hit class: no change; caspase hit class: no change; viability robust z-score: -1.65; caspase robust z-score: -1.38
SLC26A3 → viability hit class: no change; caspase hit class: no change; viability robust z-score: 1.09; caspase robust z-score: -0.84
CENPV → viability hit class: no change; caspase hit class: no change; viability robust z-score: 0.14; caspase robust z-score: 5
DMPK → viability hit class: no change; caspase hit class: no change; viability robust z-score: -0.17; caspase robust z-score: 1.78
OR14A16 → viability hit class: no change; caspase hit class: no change; viability robust z-score: 0.55; caspase robust z-score: 0.03
CIART → viability hit class: no change; caspase hit class: no change; viability robust z-score: 0.74; caspase robust z-score: -0.24
ZNF626 → viability hit class: no change; caspase hit class: no change; viability robust z-score: 0.51; caspase robust z-score: -0.78
ZNF37A → viability hit class: no change; caspase hit class: no change; viability robust z-score: -0.5; caspase robust z-score: 0.3
CALCOCO1 → viability hit class: no change; caspase hit class: no change; viability robust z-score: -3.42; caspase robust z-score: 0.28
CHRNG → viability hit class: no change; caspase hit class: no change; viability robust z-score: -0.57; caspase robust z-score: -0.32
ZSCAN29 → viability hit class: no change; caspase hit class: no change; viability robust z-score: 0.6; caspase robust z-score: -0.72
LIPG → viability hit class: no change; caspase hit class: no change; viability robust z-score: 0.68; caspase robust z-score: -0.08
PCNX2 → viability hit class: no change; caspase hit class: no change; viability robust z-score: -1.01; caspase robust z-score: 3.04
SFI1 → viability hit class: no change; caspase hit class: no change; viability robust z-score: 0.49; caspase robust z-score: 4.36
TFAP2B → viability hit class: no change; caspase hit class: no change; viability robust z-score: 1.01; caspase robust z-score: 0.38
DLX4 → viability hit class: no change; caspase hit class: no change; viability robust z-score: -0.24; caspase robust z-score: 0.24
GCH1 → viability hit class: no change; caspase hit class: no change; viability robust z-score: -0.76; caspase robust z-score: -0.42
TRMO → viability hit class: no change; caspase hit class: no change; viability robust z-score: -3.23; caspase robust z-score: 0.09
